Test results: PubChem BioAssay AID2417 (National Center for Advancing Translational Sciences (NCATS), 2010)
In all, about 140,000 compounds went through this assay and about 4,300 (3.1%) were called active. The shares of active, inactive and inconclusive entries below differ from those in the screen.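 Rule for the calls: active = readout at or below -70, meaning at least 70% loss of cells showing the perinucleolar compartment, a nuclear body marking cancer cells; inconclusive = readout between -30 and a set limit; inactive = the rest.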

Experiment: High Content Assay for Compounds that inhibit the Assembly of the Perinucleolar Compartment;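 note: plate controls were DMSO wells for no effect and camptothecin positive control wells for full effect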
Conditions: PC3M PTB-GFP, PNC prevalence imaging, 16 h; at 10 µM; hits give low values
Procedure, shortened: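 PC3M cells stably expressing PTB-GFP, 750–1000 cells/well, treated 16 h at 37 °C with compound (23 nl of library stock), in duplicate. After paraformaldehyde fixation and Hoechst stain, imaged at 20x; PNC prevalence scored by image analysis.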

| SMILES | activity change (PNC), negative = inhibition |
| --- | --- |
| COc1ccc(N2C(=O)CC(NC3CCCCNC3=O)C2=O)cc1 (centres undefined) | inconclusive: -48.2% |
| Cc1cc(C)c2c(-n3cccc3)nn(C)c2n1 | active: -109% |
| Cc1cc(C)c(NC(=O)C2CCCN2CCOC(=O)c2ccccc2)c(C)c1 (centres undefined) | inconclusive: -43.2% |
| Cn1c(Cn2c(=O)sc3ccccc32)nnc1SCc1ccc(F)cc1 | inconclusive: -79.3% |
| COc1ccc(OC)c(NC(=O)C2CCN(Cc3cnn(-c4ccccc4)c3-n3cccc3)CC2)c1 | active: -87.8% |
| CCOCCc1nnc(NC(=O)CSc2ccccc2)s1 | inconclusive: -30.3% |
| O=C(OCCN1C(=O)c2ccccc2C1=O)C1CCN(S(=O)(=O)c2cccs2)CC1 | inconclusive: -59.9% |
| COC(=O)/C=C1\N/C(=N\c2nc(C)cc(C)n2)N(c2ccc(C)c(C)c2)C1=O | inconclusive: -31.8% |
| Nn1c(SC/C=C/c2ccccc2)nnc1-c1cccnc1 | inactive: 43.5% |
| CN(C)S(=O)(=O)c1ccc(Cl)c(NC(=O)CSc2nc3c(cc2C#N)C(=O)CC(C)(C)C3)c1 | active: -109% |
| CC(C)C(C(=O)NC1CCCCC1)N(CC1CCCO1)C(=O)CNS(=O)(=O)c1ccc(F)cc1 (centres undefined) | inconclusive: -40.4% |
| COc1cc(OC)c(C(=O)NC2CC(C)(C)NC(C)(C)C2)cc1OC | inconclusive: -67% |
| Cc1nnc(SCC(=O)c2cc(C)n(-c3c(C)n(C)n(-c4ccccc4)c3=O)c2C)s1 | inactive: -0.731% |
| O=C(CN1CCCc2ccccc21)N/N=C/c1ccccc1 | inconclusive: -59.9% |
| COc1ccc(Cl)cc1NC(=O)CN(C1CCCCC1)S(C)(=O)=O | inconclusive: -70.9% |
| N#CC(CO)(Cc1ccc(OC(F)F)cc1)c1nc2ccccc2[nH]1 (centres undefined) | inconclusive: -76.7% |
| Cc1ccc(C(C)NC(=O)C2CCCO2)cc1C (centres undefined) | inconclusive: -44% |
| CCOCCCNC(=O)C(c1ccc(Cl)cc1)N1CCC2(CC1)OCCO2 (centres undefined) | inconclusive: -32.5% |
| CCCCN(C(=O)c1ccc(Cl)cc1)C1CC2CCC(C1)N2C (centres undefined) | inconclusive: -33.4% |
| CCN1C(=O)c2cccc3c(S(=O)(=O)NCCCN4CCOCC4)ccc1c23 | inconclusive: -35.2% |
| Cc1cc(O)c(/C=N/Nc2ccccc2Cl)c(=O)o1 | inactive: 19.4% |
| O=S(=O)(Nc1ccc(N2CCCCC2)cc1)c1cccc2cccnc12 | inconclusive: -69.1% |
| O=C(/C=C/c1ccccc1)c1ccoc1 | inconclusive: -67.6% |

Entries listed so far containing four or more nitrogen atoms, in the order listed:

| SMILES | activity change (PNC), negative = inhibition |
| --- | --- |
| Cc1cc(C)c2c(-n3cccc3)nn(C)c2n1 | active: -109% |
| Cn1c(Cn2c(=O)sc3ccccc32)nnc1SCc1ccc(F)cc1 | inconclusive: -79.3% |
| COc1ccc(OC)c(NC(=O)C2CCN(Cc3cnn(-c4ccccc4)c3-n3cccc3)CC2)c1 | active: -87.8% |
| COC(=O)/C=C1\N/C(=N\c2nc(C)cc(C)n2)N(c2ccc(C)c(C)c2)C1=O | inconclusive: -31.8% |
| Nn1c(SC/C=C/c2ccccc2)nnc1-c1cccnc1 | inactive: 43.5% |
| CN(C)S(=O)(=O)c1ccc(Cl)c(NC(=O)CSc2nc3c(cc2C#N)C(=O)CC(C)(C)C3)c1 | active: -109% |
| Cc1nnc(SCC(=O)c2cc(C)n(-c3c(C)n(C)n(-c4ccccc4)c3=O)c2C)s1 | inactive: -0.731% |

Remaining list, next part

| SMILES | activity change (PNC), negative = inhibition |
| --- | --- |
| CN(C)S(=O)(=O)c1cccc(NC(=O)Cn2cnc3ccccc3c2=O)c1 | inactive: -19.4% |
| CC1(C)CC(CC(=O)Nc2ccc([N+](=O)[O-])cc2)C(=O)O1 (centres undefined) | inactive: 8.5% |
| Cc1ccc(C(=O)NC(=S)Nc2cccc(NC(=O)c3ccccc3)c2)cc1[N+](=O)[O-] | active: -92.9% |
| CCOC(=O)c1sc(NC(=O)CSc2nnc(Cc3ccccc3)o2)c(C#N)c1C | inactive: -13.5% |
| COc1ccc(C)cc1NC(=O)CN(C)S(=O)(=O)c1cc(C)ccc1OC | inactive: 8.56% |
| COc1ccc(S(=O)(=O)n2ccc(C(C)Oc3ccc(-c4ccccc4)c(F)c3)n2)cc1 (centres undefined) | inconclusive: -69.5% |
| CC(C)CC(=O)Nc1ccc(-c2nc3ccccc3c(=O)o2)cc1 | inconclusive: -43.4% |
| CCc1nc(SCC(=O)Nc2cc(C)on2)c2c(=O)n(C)c(=O)n(C)c2n1 | inconclusive: -56.9% |
| O=S(=O)(NCCc1ccncc1)c1ccccc1 | inactive: 50.6% |
| Cc1ccc(S(=O)(=O)N(c2nc(N(C)C)nc(N(C)C)n2)n2cnnc2)cc1 | inactive: 8.55% |
| CC(C)C(=O)Nc1ccc(C(=O)N2CCN(C(=O)c3ccco3)CC2)cc1 | inconclusive: -55.5% |
| CC(=O)N(C)c1ccc(NC(=O)c2cnn(C)c2)cc1 | inactive: 56.6% |
| CCCOc1cccc(C2/C(=C(/O)c3ccc(F)cc3)C(=O)C(=O)N2CCN(C)C)c1 (centres undefined) | inconclusive: -40.5% |
| COc1ccc(NC(=O)C2CCC(=O)N2S(=O)(=O)c2ccc(C)cc2)c(OC)c1 (centres undefined) | inconclusive: -65.7% |
| CC(=O)c1c(OCC(=O)O)ccc2c(C)cc(=O)oc12 | inconclusive: -79.4% |
| Nc1nnc(Cc2ccccc2)s1 | inactive: 30.9% |
| O=C(CSc1nnc(-c2ccc(Br)cc2)n1CCc1ccccc1)NC1CCS(=O)(=O)C1 (centres undefined) | inconclusive: -34.4% |
| Cc1ccc2c(c1)N(CC(=O)O)C(=O)CO2 | inactive: -3.62% |
| Cc1c(Cl)cccc1N=Cc1ccc([N+](=O)[O-])s1 | inconclusive: -50.9% |
| CCOc1ccc(CC(=O)NCc2cn3c(C)csc3n2)cc1 | inconclusive: -47.8% |
| O=C(C1CCCN(Cc2ccccc2)C1)N1CCc2ccccc2C1 (centres undefined) | inactive: -23.9% |
| COc1ccc(NC(=O)C(NC(=O)c2ccccc2)C(C)C)cc1 (centres undefined) | inconclusive: -32% |
| Cc1nc(NC(=O)c2ccco2)sc1-c1csc(Nc2ccc(Cl)cc2)n1 | inconclusive: -46.6% |

| SMILES | activity change (PNC), negative = inhibition |
| --- | --- |
| Cc1csc(NC(=O)C2CCC(C)(C(=O)O)C2(C)C)n1 (centres undefined) | inconclusive: -70.5% |
| CN(/N=C/c1ccncc1)c1cnn(-c2ccc(F)c(Cl)c2)c(=O)c1Cl | inconclusive: -42.5% |
| CC(NC(=O)C(C(=O)c1cccc([N+](=O)[O-])c1)n1cc(Cl)ccc1=O)c1ccccc1 (centres undefined) | inactive: 35.5% |
| CN1C(=O)NC2(O)C(=O)c3ccccc3C12O (centres undefined) | inconclusive: -55.3% |
| CCc1nc2ccccc2c(C(=O)OCc2nnc(-c3ccccc3)o2)c1C | inactive: 4.81% |
| O=C(CCS(=O)(=O)c1cccc2nsnc12)N1CC(=O)N(CCc2ccccc2)C(=O)C1 | inconclusive: -30.3% |
| O=C(CN1CCN(Cc2ccccc2Cl)CC1)N/N=C/C=C/c1ccccc1[N+](=O)[O-] | inactive: 13.2% |
| Oc1ccccc1C1=NOC(O)(C(F)F)C1 (centres undefined) | inconclusive: -58.2% |
| O=C(COC(=O)c1ccc2[nH]c3c(c2c1)CCCC3)Nc1ccccc1 | inactive: 3.74% |
| CCSc1nnc(NC(=O)CSc2nnc(CNC(=O)c3ccccc3F)o2)s1 | active: -124% |
| Cc1ccn2c(-c3csc(NCc4ccccc4)n3)c(C)nc2c1 | inconclusive: -37.2% |
| Cc1ccsc1/C=N/N=C1\C(=O)Nc2ccccc21 | inactive: -21.1% |
| COc1ccc(NC(=O)C2CCCN(S(=O)(=O)c3cccnc3)C2)c(OC)c1 (centres undefined) | inconclusive: -77.4% |
| Cc1cc(C)c(C#N)c(SCc2c(F)cccc2[N+](=O)[O-])n1 | inconclusive: -44% |
| Cc1cccc(OCCCC(=O)Nc2ccc(N3CCCCC3)cc2)c1C | inactive: 18.5% |
| CC(=O)c1c(C)[nH]c(C(=O)CSc2nc3ccccc3n2C)c1C | inactive: -7.1% |
| COc1ccccc1NC(=O)c1ccc2nc(N3C(=O)CCC3=O)sc2c1 | inactive: 133% |
| NS(=O)(=O)c1ccc(NC(=O)CSc2nnc(COc3ccccc3Cl)n2C2CC2)cc1 | inconclusive: -61.9% |
| O=C(O)C1CC=CCC1C(=O)NCc1cn2ccccc2n1 (centres undefined) | inconclusive: -48.3% |
| CCC(C)NS(=O)(=O)c1ccc(OCC(=O)Nc2ccc3c(c2)OCO3)cc1 (centres undefined) | inactive: 8.47% |
| N#Cc1nc(COc2ccccc2F)oc1NCc1ccc(F)cc1 | inactive: 7.67% |
| N#CC(C#N)=Cc1cc2ccccc2nc1N1CCCCC1 | inconclusive: -37.1% |
| CC(C)n1c(NCc2cc(Cl)ccc2O)nc2ccccc21 | inconclusive: -55.6% |

| SMILES | activity change (PNC), negative = inhibition |
| --- | --- |
| O=c1c2nnn(Cc3ccccc3)c2ncn1C/C=C/c1ccccc1 | inactive: 35.9% |
| CC(Sc1nnc(-c2cccs2)n1Cc1ccccc1)C(=O)NCc1ccc2c(c1)OCO2 (centres undefined) | inconclusive: -37.7% |
| O=C(CCCCCn1c(=O)[nH]c2ccsc2c1=O)NCc1cccs1 | inconclusive: -48.2% |
| COc1cccc(C(c2sc3ncnn3c2O)N2CCN(C(=O)c3ccco3)CC2)c1 (centres undefined) | inactive: -18.2% |
| COCCNC(=O)c1cccc(C)c1[N+](=O)[O-] | inconclusive: -53.5% |
| COc1ccc(/C(N)=N/OC(=O)CSc2ccccc2)cc1OC | inactive: 39.3% |
| COc1ccc(OC)c(C(=O)c2nc3c(n2O)CCCCC3)c1 | inconclusive: -62.4% |
| CCNC(=S)N/N=C/c1ccc(OCC(=O)Nc2ccc(C)cc2)cc1 | inactive: 2.69% |
| CCOc1ccc(N2CC(C(=O)Nc3ccccc3F)CC2=O)cc1 (centres undefined) | inconclusive: -34.1% |
| COc1ccc(C(=O)Oc2ccc(F)cc2C(=O)/C=C/c2ccc(OC)c(OC)c2)cc1 | inactive: 110% |
| CCC(C)C(Nc1ccc(C(=O)OC)cc1[N+](=O)[O-])C(=O)OC (centres undefined) | inconclusive: -68.9% |
| O=C(Cn1ccc2ccccc2c1=O)NCCC(=O)NC1CCN(Cc2ccccc2)CC1 | active: -85.9% |
| Cn1ccnc1SCC(=O)c1cc2ccccc2o1 | inconclusive: -37.4% |
| O=C1N(c2ccccc2)C(c2ccc(Cl)cc2)N2CCCN12 (centres undefined) | inconclusive: -49.4% |
| Cc1cc(N)n2ncc(-c3ccc(F)cc3)c2n1 | inconclusive: -53.1% |
| COC(=O)c1sc2nc(SCc3ccccc3C#N)n(N)c(=O)c2c1C | inconclusive: -53.6% |
| CCn1nc([N+](=O)[O-])c(C(C#N)c2nc3ccccc3n2C)c(Cl)c1=O (centres undefined) | inconclusive: -43% |
| CC(NC(=O)CC(O)(C(F)(F)F)C(F)(F)F)c1ccccc1 (centres undefined) | active: -87.6% |
| Cc1ccc(/C(O)=C2\C(=O)C(=O)N(c3cc(C)on3)C2c2cccc(Cl)c2)cc1 (centres undefined) | inconclusive: -32.2% |
| CC(CC(=O)Nc1ccccc1C(F)(F)F)c1ccccc1 (centres undefined) | inconclusive: -45.8% |
